From PMC6375223
Substitutions are numbered along the chain they refer to. In names and notes the source's numbering stands. These are yes or no findings as the source states them, for the method shown. Binding seen in cells or lysates may run through a third protein. Some entries that bind do so weakly or less than the wild type.

Protein sequences, listed by entry. Tags and fused reporters are not part of them.
UniProt Q13309: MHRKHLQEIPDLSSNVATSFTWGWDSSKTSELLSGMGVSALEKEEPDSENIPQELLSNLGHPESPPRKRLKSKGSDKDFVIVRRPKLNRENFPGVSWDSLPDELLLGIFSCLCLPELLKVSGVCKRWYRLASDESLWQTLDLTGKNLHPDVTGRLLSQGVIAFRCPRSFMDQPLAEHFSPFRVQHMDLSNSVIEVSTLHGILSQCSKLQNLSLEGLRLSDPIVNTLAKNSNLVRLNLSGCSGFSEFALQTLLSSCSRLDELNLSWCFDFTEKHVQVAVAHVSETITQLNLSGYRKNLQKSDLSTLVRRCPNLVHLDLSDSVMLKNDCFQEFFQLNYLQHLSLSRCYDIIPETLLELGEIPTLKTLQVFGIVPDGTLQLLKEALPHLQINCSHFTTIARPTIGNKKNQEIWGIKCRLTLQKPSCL

Tests used:
[1] = target: S-phase kinase-associated protein 2 (SKP2), endogenous (human (endogenous in 293 T)) (UniProt Q13309); assay: co-IP; endogenous proteins in 293 T whole-cell lysate (weak RIPA lysis buffer), immunoprecipitation with SKP2 antibody or PDCD4 antibody, immunoblotting
[2] = target: SKP2 (wild type) in transfected 293 T cells (UniProt Q13309); assay: co-IP; 293 T cells transfected with the indicated plasmids, whole-cell lysate (weak RIPA lysis buffer), immunoprecipitation and immunoblotting

B1: Programmed cell death protein 4 (PDCD4), endogenous (protein, UniProt Q53EL6 1-469)
chain: MDVENEQILNVNPADPDNLSDSLFSGDEENAGTEEIKNEINGNWISASSINEARINAKAKRRLRKNSSRDSGRGDSVSDSGSDALRSGLTVPTSPKGRLLDRRSRSGKGRGLPKKGGAGGKGVWGTPGQVYDVEEVDVKDPNYDDDQENCVYETVVLPLDERAFEKTLTPIIQEYFEHGDTNEVAEMLRDLNLGEMKSGVPVLAVSLALEGKASHREMTSKLLSDLCGTVMSTTDVEKSFDKLLKDLPELALDTPRAPQLVGQFIARAVGDGILCNTYIDSYKGTVDCVQARAALDKATVLLSMSKGGKRKDSVWGSGGGQQSVNHLVKEIDMLLKEYLLSGDISEAEHCLKELEVPHFHHELVYEAIIMVLESTGESTFKMILDLLKSLWKSSTITVDQMKRGYERIYNEIPDINLDVPHSYSVLERFVEECFQAGIISKQLRDLCPSRGRKRFVSEGDGGRLKPESY
binding [1]: binds | binding [2]: binds

B2: PDCD4 (S67A) mutant (protein, UniProt Q53EL6 1-469)
chain: B1 chain with S67A
binding [2]: no binding
